Results are given in words; binding and its absence hold for the method and conditions named. Binding seen in cells or lysates may run through a third protein. Some entries that bind do so weakly or less than the wild type.

Sequences of proteins named here, by UniProt entry; tags and fusion partners are left off.
UniProt Q6NZM9: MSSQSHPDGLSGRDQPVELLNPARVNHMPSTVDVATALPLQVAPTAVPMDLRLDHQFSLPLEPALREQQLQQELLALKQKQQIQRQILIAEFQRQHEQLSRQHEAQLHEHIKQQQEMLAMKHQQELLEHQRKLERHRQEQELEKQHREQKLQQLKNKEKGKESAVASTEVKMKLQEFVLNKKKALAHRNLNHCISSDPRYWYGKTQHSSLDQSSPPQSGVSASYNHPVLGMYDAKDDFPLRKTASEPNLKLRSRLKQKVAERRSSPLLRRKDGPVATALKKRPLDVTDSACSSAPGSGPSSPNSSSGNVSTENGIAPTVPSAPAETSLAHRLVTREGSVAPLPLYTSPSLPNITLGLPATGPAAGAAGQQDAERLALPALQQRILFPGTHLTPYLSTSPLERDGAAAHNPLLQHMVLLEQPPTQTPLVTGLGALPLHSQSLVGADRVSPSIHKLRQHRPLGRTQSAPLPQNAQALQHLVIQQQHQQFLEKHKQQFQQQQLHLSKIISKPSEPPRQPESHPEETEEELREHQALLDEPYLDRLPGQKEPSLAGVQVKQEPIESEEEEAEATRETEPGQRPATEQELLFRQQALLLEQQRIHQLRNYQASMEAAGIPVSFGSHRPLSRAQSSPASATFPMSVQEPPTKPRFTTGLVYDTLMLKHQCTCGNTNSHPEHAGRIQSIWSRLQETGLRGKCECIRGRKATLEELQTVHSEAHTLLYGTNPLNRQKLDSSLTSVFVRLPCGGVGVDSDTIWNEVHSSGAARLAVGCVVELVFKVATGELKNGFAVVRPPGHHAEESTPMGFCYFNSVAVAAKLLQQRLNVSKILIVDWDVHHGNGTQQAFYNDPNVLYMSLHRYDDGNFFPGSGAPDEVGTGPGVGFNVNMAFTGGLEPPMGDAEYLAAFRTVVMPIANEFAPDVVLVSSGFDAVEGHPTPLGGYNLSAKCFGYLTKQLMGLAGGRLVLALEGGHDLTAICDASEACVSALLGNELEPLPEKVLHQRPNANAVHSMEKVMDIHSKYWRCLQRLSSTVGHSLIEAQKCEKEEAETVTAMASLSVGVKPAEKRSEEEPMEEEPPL

This experiment concerns the target FLAG-Hdac4 (UniProt Q6NZM9). Put plainly: co-IP; HEK293T cells cotransfected with Nanog and FLAG-Hdac4; lysed in modified RIPA buffer; anti-FLAG agarose beads overnight at 4 °C, normal IgG as negative control; blot with anti-Nanog and anti-FLAG.

B1: Nanog (protein, UniProt Q80Z64 1-305)
chain: MSVGLPGPHSLPSSEEASNSGNASSMPAVFHPENYSCLQGSATEMLCTEAASPRPSSEDLPLQGSPDSSTSPKQKLSSPEADKGPEEEENKVLARKQKMRTVFSQAQLCALKDRFQKQKYLSLQQMQELSSILNLSYKQVKTWFQNQRMKCKRWQKNQWLKTSNGLIQKGSAPVEYPSIHCSYPQGYLVNASGSLSMWGSQTWTNPTWSSQTWTNPTWNNQTWTNPTWSSQAWTAQSWNGQPWNAAPLHNFGEDFLQPYVQLQQNFSASDLEVNLEATRESHAHFSTPQALELFLNYSVTPPGEI
As for B1, the binding result was “binds”.

The values above are taken from article PMC5833852.
